In EP4678638A1, “NEW E3 UBIQUITIN LIGASE LIGAND, PROTEIN DEGRADATION AGENT AND USE THEREOF” (priority 2023, dated 2024):

Tested on: DU-145
Experiment: CCK-8 proliferation, DU-145
Type: cell-based
Conditions: Homo sapiens, DU-145, 96 h, read-out: Inhibitory activity (IC50) on tumor cell proliferation, DU-145
Method: The tumor cells used herein were cultured in a cell culture medium listed in table A1 at 37°C in an incubator with 5% CO2. Prior to experimentation, all cell lines used were correctly identified by STR profiling, and tested negative for mycoplasma contamination using a mycoplasma detection kit through routine screenings. Table A1. Tumor cells and cell culture medium used in the present disclosure
IC50 values of the compounds of the present disclosure (including the compounds in Table 1, and compounds of examples) were measured using the Meilun Cell Counting Kit-8 kit from Dalian Meilun Biotech Co., Ltd. Assay details are as follows: tumor cells were seeded in a 96-well plate at a density listed in Table A2. After 24h, 100 µL of the inoculated cells were treated with 0.5µL of the compounds of the present disclosure (including the compounds in Tables 1 and 2, and compounds of examples) at 10 different successively decreasing concentrations (starting at the highest concentration of 10µM; 5-fold serial dilutions). […] The growth inhibition of the compounds of the present disclosure on cells was plotted by Prism Graphpad software, and the IC50 values of the compounds of the present disclosure were calculated therefrom. […]

## CNC(=O)c1ccc(N2C(=S)N(c3ccc(C#N)c(C(F)(F)F)c3)C(=O)C2(C)C)cc1F [Enzalutamide]
  IC50: 1 to 5 µM
